Laboratory results from patent US3984415A, “1-Nitrophenylpyrido [2,3-d] pyrimidine-2,4(1H,3H)-diones” (Hisamitsu Pharmaceutical Co., Inc., priority 1973, dated 1976).

Test system: dd-strain male mice
Details: i.p., 72 hours
Experimental: The lethal dose was estimated from the death of animals 72 hours after administration.

CN1C(=O)CN=C(c2ccccc2)c2cc(Cl)ccc21 [diazepam, reference compound]
acute toxicity (lethal dose): 300 to 1000 mg/kg
